Measurements reported in PubChem BioAssay AID330 (DTP/NCI, 2004).
The list does not hold the whole screen: it gathers tests that were run many times, whatever their T/C, doses with no T/C, and many T/C values between a quarter and a half above the control. Other doses and runs of a compound stand elsewhere. T/C gives the treated animals as a percentage of the vehicle group. Some doses have a count of surviving animals in place of a T/C: the source holds a T/C of zero for them, seemingly a mark for toxic or unscored doses. Some doses without a T/C left all or most animals alive at the check, yet need not have been tolerated: the source hardly ever lists a survival T/C far under the control, and the zero likely stands for such cases as well. Survivors were counted at the toxicity check, usually on the fifth day, unless a day is given; later deaths do not show. Schedules are NCI's codes, read here as Q, the interval in days (D) or hours (H), X, the number of doses. Some entries were tested several times; their values stand side by side, smallest first. Marks such as (2×) count equal records among those shown. Some structures stand for samples that the source files as different forms (salt, stereo form or complex); doses refer to the form tested. Where survival is the endpoint, the PubChem record calls one and a half times the control and up active, and a quarter to a half above the control has no call in these data; cut-offs in other NCI protocols can differ. Some T/C values carry the count of animals alive at the toxicity check (mostly the fifth day); where none is given, no animal had died by that day.

System: P388 leukemia ip, CD2F1 mice, survival T/C
Assay: NCI In Vivo Anticancer Drug Screen. Data for tumor model P388 Leukemia (intraperitoneal) in CD2F1 (CDF1) mice
Conditions: T/C endpoint: median survival time, higher T/C = longer survival
[1] = dose: 100.0 mg/kg/injection, schedule: Q01DX005 (ip), vehicle: saline with Tween-80
[2] = dose: 200.0 mg/kg/injection, schedule: Q01DX005 (ip), vehicle: saline with Tween-80
[3] = dose: 50.0 mg/kg/injection, schedule: Q01DX005 (ip), vehicle: Klucel (hydroxypropylcellulose) (HPC)
[4] = dose: 100.0 mg/kg/injection, schedule: Q01DX005 (ip), vehicle: Klucel (hydroxypropylcellulose) (HPC)
[5] = dose: 200.0 mg/kg/injection, schedule: Q01DX005 (ip), vehicle: Klucel (hydroxypropylcellulose) (HPC)
[6] = dose: 50.0 mg/kg/injection, schedule: Q01DX005 (ip), vehicle: saline with Tween-80
[7] = dose: 200.0 mg/kg/injection, schedule: Q01DX009 (ip), vehicle: Klucel (hydroxypropylcellulose) (HPC)
[8] = dose: 0.09 mg/kg/injection, schedule: Q01DX005 (ip), vehicle: Klucel (hydroxypropylcellulose) (HPC)
[9] = dose: 0.19 mg/kg/injection, schedule: Q01DX005 (ip), vehicle: Klucel (hydroxypropylcellulose) (HPC)
[10] = dose: 0.39 mg/kg/injection, schedule: Q01DX005 (ip), vehicle: Klucel (hydroxypropylcellulose) (HPC)
[11] = dose: 0.79 mg/kg/injection, schedule: Q01DX005 (ip), vehicle: Klucel (hydroxypropylcellulose) (HPC)

SMILES: COC1=CC(=Nc2cc(Br)c(O)c(Br)c2)C=CC1=O
- survivor count [1]: 3 of 5
- survivor count [2]: 0 of 5

SMILES: CCCCCCCCCCCCC[N+]1([O-])CCOCC1
- survivor count (dose: 100.0 mg/kg/injection, schedule: Q01DX009 (ip), vehicle: saline): 2 of 6
- survivor count (dose: 200.0 mg/kg/injection, schedule: Q01DX009 (ip), vehicle: saline): 0 of 6

SMILES: Clc1ccc(C(Cn2ccnc2)OCc2c(Cl)cccc2Cl)cc1 (stereo unspecified)
- survivor count (dose: 200.0 mg/kg/injection, schedule: Q01DX009 (ip), vehicle: saline with Tween-80): 4 of 6

SMILES: O=NNc1cnccn1
- T/C (dose: 6.25 mg/kg/injection, schedule: Q01DX009 (ip), vehicle: water): 127 % of control
- T/C (dose: 11.0 mg/kg/injection, schedule: Q01DX009 (ip), vehicle: water, evaluated on day 30): 144 % of control
- T/C (dose: 11.0 mg/kg/injection, schedule: Q01DX009 (ip), vehicle: water, evaluated on day 44): 134 % of control
- T/C (dose: 11.0 mg/kg/injection, schedule: Q01DX009 (ip), vehicle: water, evaluated on day 45): 133 and 145 % of control
- T/C (dose: 11.0 mg/kg/injection, schedule: Q01DX009 (ip), vehicle: water, evaluated on day 60): 131 % of control
- T/C (dose: 11.3 mg/kg/injection, schedule: Q01DX009 (ip), vehicle: other): 131 % of control
- T/C (dose: 11.3 mg/kg/injection, schedule: Q01DX009 (ip), vehicle: water): 141 % of control (2×)
- T/C (dose: 12.5 mg/kg/injection, schedule: Q01DX009 (ip), vehicle: water): 126, 138, 143 % of control
- T/C (dose: 16.9 mg/kg/injection, schedule: Q01DX009 (ip), vehicle: other): 140 % of control
- T/C (dose: 16.9 mg/kg/injection, schedule: Q01DX009 (ip), vehicle: water): 144 % of control (2×)
- T/C (dose: 17.0 mg/kg/injection, schedule: Q01DX009 (ip), vehicle: water, evaluated on day 30): 155 % of control
- T/C (dose: 17.0 mg/kg/injection, schedule: Q01DX009 (ip), vehicle: water, evaluated on day 40): 165 % of control
- T/C (dose: 17.0 mg/kg/injection, schedule: Q01DX009 (ip), vehicle: water, evaluated on day 44): 149 % of control
- T/C (dose: 17.0 mg/kg/injection, schedule: Q01DX009 (ip), vehicle: water, evaluated on day 45): 141, 158, 159, 160, 161, 165, 168, 171 % of control
- T/C (dose: 17.0 mg/kg/injection, schedule: Q01DX009 (ip), vehicle: water, evaluated on day 60): 147 % of control
- T/C (dose: 25.0 mg/kg/injection, schedule: Q01DX009 (ip), vehicle: water, evaluated on day 30): 132, 186, 187, 189, 195, 207 % of control
- T/C (dose: 25.0 mg/kg/injection, schedule: Q01DX009 (ip), vehicle: water, evaluated on day 40): 197 % of control
- T/C (dose: 25.0 mg/kg/injection, schedule: Q01DX009 (ip), vehicle: water, evaluated on day 44): 172 % of control
- T/C (dose: 25.0 mg/kg/injection, schedule: Q01DX009 (ip), vehicle: water, evaluated on day 45): 161, 184, 186, 190, 193, 206, 210 [9 of 10 alive], 216 % of control
- T/C (dose: 25.0 mg/kg/injection, schedule: Q01DX009 (ip), vehicle: water, evaluated on day 60): 183 % of control
- T/C (dose: 38.0 mg/kg/injection, schedule: Q01DX009 (ip), vehicle: water, evaluated on day 40): 279 % of control
- T/C (dose: 38.0 mg/kg/injection, schedule: Q01DX009 (ip), vehicle: water, evaluated on day 41): 240 % of control (2×)
- T/C (dose: 38.0 mg/kg/injection, schedule: Q01DX009 (ip), vehicle: water, evaluated on day 44): 258 % of control
- T/C (dose: 38.0 mg/kg/injection, schedule: Q01DX009 (ip), vehicle: water, evaluated on day 45): 200, 268, 276, 287, 294, 306, 361 % of control
- T/C (dose: 56.0 mg/kg/injection, schedule: Q01DX009 (ip), vehicle: water, evaluated on day 30): 111 % of control
- T/C (dose: 56.0 mg/kg/injection, schedule: Q01DX009 (ip), vehicle: water, evaluated on day 40): 106 % of control
- T/C (dose: 56.0 mg/kg/injection, schedule: Q01DX009 (ip), vehicle: water, evaluated on day 45): 105, 107, 108, 110, 114, 120, 125 % of control
- T/C (dose: 56.0 mg/kg/injection, schedule: Q01DX009 (ip), vehicle: water, evaluated on day 60): 283 % of control
- T/C (dose: 57.0 mg/kg/injection, schedule: Q01DX009 (ip), vehicle: other): 137 % of control
- survivor count (dose: 100.0 mg/kg/injection, schedule: Q01DX009 (ip), vehicle: water): 5 of 6

SMILES: COc1ccccc1N=NC(C#N)C(N)=O (stereo unspecified)
- survivor count (dose: 100.0 mg/kg/injection, schedule: Q01DX009 (ip), vehicle: saline with Tween-80): 6 of 6

SMILES: C1CCN2CC3CC(CN4CCCC[C@@H]34)[C@@H]2C1
- survivor count [3]: 0 of 6
- survivor count [4]: 0 of 6
- survivor count [5]: 0 of 6

SMILES: NNC(=O)N/N=C/c1ccccc1Cl
- survivor count [4]: 0 of 6
- survivor count [5]: 0 of 6

SMILES: C/C(=N\NC(=S)N(C)C1CCCCC1)c1ccc2ccccc2n1
- T/C (dose: 25.0 mg/kg/injection, schedule: Q01DX005 (ip), vehicle: saline with Tween-80): 131 % of control
- T/C [6]: 147 % of control
- survivor count [6]: 6 of 6
- survivor count [1]: 2 of 6
- survivor count [2]: 0 of 6

SMILES: O=c1cccc(C(Cl)(Cl)Cl)o1
- survivor count (dose: 240.0 mg/kg/injection, schedule: Q01DX005 (ip), vehicle: saline + Tween-80 + alcohol): 0 of 6

SMILES: COc1ccccc1NC(=O)C1=C(C)NC(C)=C(C(=O)Nc2ccccc2OC)C1c1cccc([N+](=O)[O-])c1
- survivor count (dose: 240.0 mg/kg/injection, schedule: Q01DX005 (ip), vehicle: Klucel (hydroxypropylcellulose) (HPC)): 6 of 6

SMILES: O=c1c2ccccc2n(-c2ccccc2)c2ccc(Cl)cc12
- survivor count [2]: 5 of 5

SMILES: COc1cc(/C=C\C(=O)c2cccc(O)c(=O)c2)cc(OC)c1OC
- survivor count [7]: 4 of 6

SMILES: C[CH2][Sn]([Cl])([CH2]C)[c]1cc[c]([Sn]([Cl])([CH2]C)[CH2]C)cc1
- T/C (dose: 0.04 mg/kg/injection, schedule: Q01DX005 (ip), vehicle: Klucel (hydroxypropylcellulose) (HPC)): 149 % of control
- T/C [8]: 111 [5 of 6 alive] and 150 % of control [5 of 6 alive]
- survivor count [8]: 0 of 6 and 2 of 6
- T/C [9]: 114 and 139 % of control
- survivor count [9]: 0 of 6 (2×)
- T/C [10]: 130 % of control
- survivor count [10]: 0 of 6 (2×) and 4 of 6
- T/C [11]: 125 % of control
- survivor count [11]: 0 of 6 (2×)
- survivor count (dose: 1.56 mg/kg/injection, schedule: Q01DX005 (ip), vehicle: Klucel (hydroxypropylcellulose) (HPC)): 1 of 6
- survivor count (dose: 6.25 mg/kg/injection, schedule: Q01DX005 (ip), vehicle: Klucel (hydroxypropylcellulose) (HPC)): 0 of 6
- survivor count (dose: 12.5 mg/kg/injection, schedule: Q01DX005 (ip), vehicle: Klucel (hydroxypropylcellulose) (HPC)): 0 of 6
- survivor count (dose: 25.0 mg/kg/injection, schedule: Q01DX005 (ip), vehicle: Klucel (hydroxypropylcellulose) (HPC)): 0 of 6
- survivor count [3]: 0 of 6
- survivor count [4]: 0 of 6
- survivor count [5]: 0 of 6

SMILES: CSC(=S)SC(SC)S(C)(=O)=O (stereo unspecified)
- survivor count (dose: 50.0 mg/kg/injection, schedule: Q01DX009 (ip), vehicle: Klucel (hydroxypropylcellulose) (HPC)): 0 of 6 and 1 of 6
- survivor count (dose: 100.0 mg/kg/injection, schedule: Q01DX009 (ip), vehicle: Klucel (hydroxypropylcellulose) (HPC)): 0 of 6
- survivor count [7]: 0 of 6

SMILES: ClCCCSSCCCCl
- T/C (dose: 120.0 mg/kg/injection, schedule: Q01DX005 (ip), vehicle: saline with Tween-80): 137 % of control
- T/C (dose: 240.0 mg/kg/injection, schedule: Q01DX005 (ip), vehicle: saline with Tween-80): 128 % of control [5 of 6 alive]
